At least one structure is not confirmed: it was looked up by name or label, or the drawing left a doubt.
System: Delayed type hypersensitivity (DTH) skin reaction
Experiment: Inhibition of DTH skin reactions (oxazolone-induced mouse ear swelling test)
Format: in vivo, female Balb/c mice
Conditions: DTH skin reaction model, topical
Protocol: Delayed type hypersensitivity (DTH), a localized inflammatory reaction induced by cytokines secreted by TH cells when they encounter certain types of antigens, is an established experimental model for skin inflammation.
DTH reactions were induced in the abdomen skin of 8 week old female Balb/c mice. The mice were sensitized first by topical application of 100 μl of a 5% Oxazolone (4-Ethoxymethylene-2-phenyl-2-oxazolin-5-one; Sigma) solution in ethanol/acetone (3:1, vol/vol) to a shaved abdomen. The mice were anesthetized with ip injection of Ketamine (1 ml)+Xylazine (1 ml)+Saline (8 ml), (0.2 ml per 20 g mouse). Anesthetization was performed before the shaving of the abdomen and the first sensitization.
After 4 days the mice were challenged for the second time using 1% Oxazolone (4-Ethoxymethylene-2-phenyl-2-oxazolin-5-one; Sigma) solution in ethanol/acetone (3:1, vol/vol). The solution was pipetted to the shaved abdomen of the mice.
Six days after the first sensitization, the right ear of each mouse was challenged with a topical application of 20 μl (10 μl on each surface of the ear) of a 1% Oxazolone solution in olive oil/acetone (3:1, vol/vol). […]
After 24 hours, the extent of inflammation was measured using the mouse ear swelling test (caliper) and the percent inhibition induced by the treatment was quantified. […]

Compound: CCCCCCCC/C=C\CCCCCCCC(=O)OCc1ccc(CN(C)C)cc1.Cl [Compound 1c, Octadec-(Z)-9-enoic acid 4-dimethylaminomethyl-benzyl ester HCl]
- most effective doses: 40 and 100 mg/ml
